Among the data in the supplement of paper PMC10849652 are log2 fold change values, retold here.

Chains of the proteins cited; added tags and fusions are not shown. Lines headed by an entry give the natural chain unless they say otherwise; changes in a name come on top.
UniProt P10109: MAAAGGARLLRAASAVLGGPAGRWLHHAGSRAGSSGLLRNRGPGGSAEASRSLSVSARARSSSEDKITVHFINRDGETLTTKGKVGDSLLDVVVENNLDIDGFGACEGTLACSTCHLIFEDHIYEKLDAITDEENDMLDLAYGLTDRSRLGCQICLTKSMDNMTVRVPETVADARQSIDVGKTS
UniProt Q9NXK8: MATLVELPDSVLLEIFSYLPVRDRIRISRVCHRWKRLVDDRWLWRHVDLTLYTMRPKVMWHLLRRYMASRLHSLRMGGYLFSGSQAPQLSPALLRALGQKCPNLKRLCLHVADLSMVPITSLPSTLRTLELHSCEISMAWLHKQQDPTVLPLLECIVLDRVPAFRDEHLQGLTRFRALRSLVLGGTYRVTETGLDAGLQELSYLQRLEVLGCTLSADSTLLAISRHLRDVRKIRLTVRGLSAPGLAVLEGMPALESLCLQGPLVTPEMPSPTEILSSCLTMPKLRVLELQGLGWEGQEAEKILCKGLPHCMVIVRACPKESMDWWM
UniProt P31995: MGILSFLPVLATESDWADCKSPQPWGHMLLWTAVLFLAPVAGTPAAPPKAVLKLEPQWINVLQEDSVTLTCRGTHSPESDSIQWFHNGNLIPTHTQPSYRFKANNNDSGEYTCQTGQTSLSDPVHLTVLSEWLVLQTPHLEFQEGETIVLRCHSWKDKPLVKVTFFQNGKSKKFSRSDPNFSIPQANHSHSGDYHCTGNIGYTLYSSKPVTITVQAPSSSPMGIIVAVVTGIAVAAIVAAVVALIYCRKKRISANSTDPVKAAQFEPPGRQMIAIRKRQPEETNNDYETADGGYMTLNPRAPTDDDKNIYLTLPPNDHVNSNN
UniProt Q9Y5Y0: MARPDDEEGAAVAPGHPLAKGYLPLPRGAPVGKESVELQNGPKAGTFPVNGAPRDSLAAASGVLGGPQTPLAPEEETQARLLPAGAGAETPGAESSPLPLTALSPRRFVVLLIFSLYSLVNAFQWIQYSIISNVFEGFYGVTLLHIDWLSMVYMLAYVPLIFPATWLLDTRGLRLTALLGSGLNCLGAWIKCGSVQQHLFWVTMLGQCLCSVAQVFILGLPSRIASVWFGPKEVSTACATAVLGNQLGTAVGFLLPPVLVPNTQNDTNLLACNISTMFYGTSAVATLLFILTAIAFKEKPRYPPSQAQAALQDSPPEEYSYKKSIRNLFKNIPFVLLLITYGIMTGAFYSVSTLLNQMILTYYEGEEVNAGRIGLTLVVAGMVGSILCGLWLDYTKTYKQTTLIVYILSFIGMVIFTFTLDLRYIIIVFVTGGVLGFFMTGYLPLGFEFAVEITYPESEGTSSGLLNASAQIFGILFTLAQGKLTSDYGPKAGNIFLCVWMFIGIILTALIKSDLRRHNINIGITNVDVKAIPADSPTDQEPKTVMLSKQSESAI
UniProt Q9NUQ9: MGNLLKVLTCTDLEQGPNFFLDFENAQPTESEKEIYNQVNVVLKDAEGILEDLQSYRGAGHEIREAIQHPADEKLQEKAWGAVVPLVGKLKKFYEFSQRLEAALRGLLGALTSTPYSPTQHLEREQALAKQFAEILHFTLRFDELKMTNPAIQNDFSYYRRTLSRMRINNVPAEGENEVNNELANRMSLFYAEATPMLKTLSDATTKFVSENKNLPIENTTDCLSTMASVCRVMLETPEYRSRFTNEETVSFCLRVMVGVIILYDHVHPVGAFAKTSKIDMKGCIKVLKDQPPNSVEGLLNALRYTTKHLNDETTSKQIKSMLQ
UniProt P26885: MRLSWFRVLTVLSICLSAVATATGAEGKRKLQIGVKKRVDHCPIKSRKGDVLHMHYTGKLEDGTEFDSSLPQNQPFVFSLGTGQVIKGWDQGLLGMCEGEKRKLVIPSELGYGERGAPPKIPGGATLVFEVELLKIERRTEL
UniProt Q8WVX9: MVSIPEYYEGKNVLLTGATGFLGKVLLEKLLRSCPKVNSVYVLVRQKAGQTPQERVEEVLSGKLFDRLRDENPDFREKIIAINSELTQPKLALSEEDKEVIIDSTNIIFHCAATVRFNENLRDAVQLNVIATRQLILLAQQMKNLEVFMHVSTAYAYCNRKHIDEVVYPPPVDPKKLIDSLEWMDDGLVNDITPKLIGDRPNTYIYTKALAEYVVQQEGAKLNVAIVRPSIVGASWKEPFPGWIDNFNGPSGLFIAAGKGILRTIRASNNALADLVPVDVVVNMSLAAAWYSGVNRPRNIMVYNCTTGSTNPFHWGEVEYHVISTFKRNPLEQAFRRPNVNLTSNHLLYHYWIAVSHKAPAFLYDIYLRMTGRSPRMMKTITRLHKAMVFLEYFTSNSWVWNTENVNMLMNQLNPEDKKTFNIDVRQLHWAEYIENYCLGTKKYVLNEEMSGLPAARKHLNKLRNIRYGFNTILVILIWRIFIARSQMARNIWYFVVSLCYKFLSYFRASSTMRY
UniProt Q52LJ0: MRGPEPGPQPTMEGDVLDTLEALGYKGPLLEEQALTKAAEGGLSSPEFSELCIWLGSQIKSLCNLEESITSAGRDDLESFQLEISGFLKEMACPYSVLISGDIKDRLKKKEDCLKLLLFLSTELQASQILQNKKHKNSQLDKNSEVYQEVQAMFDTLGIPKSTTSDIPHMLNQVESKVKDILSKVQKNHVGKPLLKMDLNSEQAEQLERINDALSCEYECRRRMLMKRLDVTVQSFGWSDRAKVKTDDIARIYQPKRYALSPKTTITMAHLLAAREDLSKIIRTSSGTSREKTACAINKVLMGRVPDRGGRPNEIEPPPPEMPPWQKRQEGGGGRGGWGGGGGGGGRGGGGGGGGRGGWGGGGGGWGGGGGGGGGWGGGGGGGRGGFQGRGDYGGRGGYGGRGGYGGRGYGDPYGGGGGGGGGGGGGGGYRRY
UniProt Q96IG2: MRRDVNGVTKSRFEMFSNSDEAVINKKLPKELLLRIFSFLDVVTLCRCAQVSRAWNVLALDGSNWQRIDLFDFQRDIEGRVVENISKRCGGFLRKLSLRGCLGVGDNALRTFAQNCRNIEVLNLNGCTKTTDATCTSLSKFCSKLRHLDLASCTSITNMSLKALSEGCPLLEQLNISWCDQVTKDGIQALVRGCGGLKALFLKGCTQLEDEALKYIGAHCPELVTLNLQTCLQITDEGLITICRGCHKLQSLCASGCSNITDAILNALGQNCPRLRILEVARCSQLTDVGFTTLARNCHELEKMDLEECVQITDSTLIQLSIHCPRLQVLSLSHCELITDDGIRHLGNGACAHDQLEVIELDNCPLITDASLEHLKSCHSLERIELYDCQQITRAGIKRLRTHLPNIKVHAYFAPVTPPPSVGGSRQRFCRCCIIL
UniProt Q96ME1: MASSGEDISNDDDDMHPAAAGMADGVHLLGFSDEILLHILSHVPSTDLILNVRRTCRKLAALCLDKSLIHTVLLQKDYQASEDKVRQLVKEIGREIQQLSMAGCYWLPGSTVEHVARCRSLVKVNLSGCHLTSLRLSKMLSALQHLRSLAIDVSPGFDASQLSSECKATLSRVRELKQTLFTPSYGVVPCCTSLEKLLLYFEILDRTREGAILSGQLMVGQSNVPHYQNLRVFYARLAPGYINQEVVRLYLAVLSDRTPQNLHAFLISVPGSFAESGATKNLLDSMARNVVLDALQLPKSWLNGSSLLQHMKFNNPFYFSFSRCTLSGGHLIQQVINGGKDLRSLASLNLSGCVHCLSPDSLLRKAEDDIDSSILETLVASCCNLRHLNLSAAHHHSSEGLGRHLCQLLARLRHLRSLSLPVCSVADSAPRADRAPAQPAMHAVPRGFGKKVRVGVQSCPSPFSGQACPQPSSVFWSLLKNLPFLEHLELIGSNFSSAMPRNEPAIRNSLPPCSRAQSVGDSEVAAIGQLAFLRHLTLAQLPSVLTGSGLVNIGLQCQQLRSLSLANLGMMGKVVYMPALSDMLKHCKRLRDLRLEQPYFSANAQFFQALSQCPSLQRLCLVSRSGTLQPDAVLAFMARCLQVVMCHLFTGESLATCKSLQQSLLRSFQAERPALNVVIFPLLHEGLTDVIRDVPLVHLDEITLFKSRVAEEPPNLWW
UniProt Q96CP2: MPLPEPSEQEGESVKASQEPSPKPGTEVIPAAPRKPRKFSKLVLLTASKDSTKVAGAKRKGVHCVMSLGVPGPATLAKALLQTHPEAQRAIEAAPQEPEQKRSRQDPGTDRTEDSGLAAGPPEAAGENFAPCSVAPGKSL
UniProt P62942, whole entry, looked up: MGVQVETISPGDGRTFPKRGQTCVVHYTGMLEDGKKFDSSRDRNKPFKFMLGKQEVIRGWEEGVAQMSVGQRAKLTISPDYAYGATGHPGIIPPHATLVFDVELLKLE
UniProt A6NHQ2: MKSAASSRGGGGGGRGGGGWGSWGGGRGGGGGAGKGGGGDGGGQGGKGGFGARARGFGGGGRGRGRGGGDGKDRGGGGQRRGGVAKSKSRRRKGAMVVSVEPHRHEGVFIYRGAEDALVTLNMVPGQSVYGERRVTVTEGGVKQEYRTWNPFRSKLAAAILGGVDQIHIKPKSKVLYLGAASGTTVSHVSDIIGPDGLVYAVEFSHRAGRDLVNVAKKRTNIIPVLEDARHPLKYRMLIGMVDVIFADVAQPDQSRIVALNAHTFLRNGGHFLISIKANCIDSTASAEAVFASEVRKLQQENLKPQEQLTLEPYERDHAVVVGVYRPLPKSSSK
UniProt Q9UKT4: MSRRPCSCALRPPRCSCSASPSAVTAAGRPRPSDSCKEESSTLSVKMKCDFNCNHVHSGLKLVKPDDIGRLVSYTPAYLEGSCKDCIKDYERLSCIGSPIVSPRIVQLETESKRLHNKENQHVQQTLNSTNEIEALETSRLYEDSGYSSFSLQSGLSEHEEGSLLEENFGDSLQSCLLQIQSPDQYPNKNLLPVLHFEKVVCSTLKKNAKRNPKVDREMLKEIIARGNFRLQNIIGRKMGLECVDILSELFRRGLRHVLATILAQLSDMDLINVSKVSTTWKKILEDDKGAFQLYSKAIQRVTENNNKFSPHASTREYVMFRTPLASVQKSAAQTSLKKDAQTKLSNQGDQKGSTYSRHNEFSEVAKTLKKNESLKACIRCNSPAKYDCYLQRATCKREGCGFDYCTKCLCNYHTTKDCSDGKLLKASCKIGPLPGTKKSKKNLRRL
UniProt Q8N0W3: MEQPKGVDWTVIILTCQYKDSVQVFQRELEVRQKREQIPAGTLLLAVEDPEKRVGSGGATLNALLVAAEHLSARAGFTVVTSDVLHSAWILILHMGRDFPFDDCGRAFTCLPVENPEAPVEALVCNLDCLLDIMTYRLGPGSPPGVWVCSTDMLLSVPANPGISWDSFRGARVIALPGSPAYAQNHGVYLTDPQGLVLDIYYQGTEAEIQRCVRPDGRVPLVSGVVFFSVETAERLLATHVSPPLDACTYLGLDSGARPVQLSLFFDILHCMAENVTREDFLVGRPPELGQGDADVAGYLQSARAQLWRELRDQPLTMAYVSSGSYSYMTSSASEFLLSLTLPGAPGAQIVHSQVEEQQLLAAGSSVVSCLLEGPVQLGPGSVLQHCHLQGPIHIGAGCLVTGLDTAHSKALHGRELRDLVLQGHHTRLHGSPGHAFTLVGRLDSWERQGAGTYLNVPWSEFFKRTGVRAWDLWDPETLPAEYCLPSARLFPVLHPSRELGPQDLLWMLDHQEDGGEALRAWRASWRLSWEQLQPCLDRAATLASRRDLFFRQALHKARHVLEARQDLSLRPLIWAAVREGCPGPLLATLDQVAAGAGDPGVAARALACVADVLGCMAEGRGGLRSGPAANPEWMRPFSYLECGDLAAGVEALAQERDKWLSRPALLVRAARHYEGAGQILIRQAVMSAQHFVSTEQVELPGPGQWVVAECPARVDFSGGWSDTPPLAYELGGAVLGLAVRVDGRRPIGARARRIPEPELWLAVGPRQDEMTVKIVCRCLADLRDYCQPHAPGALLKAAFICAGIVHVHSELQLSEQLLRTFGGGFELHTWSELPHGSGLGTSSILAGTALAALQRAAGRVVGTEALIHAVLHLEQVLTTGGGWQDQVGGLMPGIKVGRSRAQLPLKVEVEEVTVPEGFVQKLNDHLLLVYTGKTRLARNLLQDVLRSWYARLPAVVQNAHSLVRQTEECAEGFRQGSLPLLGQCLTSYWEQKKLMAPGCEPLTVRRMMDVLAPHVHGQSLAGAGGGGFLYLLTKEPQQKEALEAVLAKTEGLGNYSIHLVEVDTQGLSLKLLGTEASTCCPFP
UniProt Q6P4F2: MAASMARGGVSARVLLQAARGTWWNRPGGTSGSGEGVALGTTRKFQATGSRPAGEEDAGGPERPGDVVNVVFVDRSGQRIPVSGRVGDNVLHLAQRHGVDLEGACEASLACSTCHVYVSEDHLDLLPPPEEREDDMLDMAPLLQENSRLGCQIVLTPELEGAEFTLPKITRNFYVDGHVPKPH
UniProt Q9Y421: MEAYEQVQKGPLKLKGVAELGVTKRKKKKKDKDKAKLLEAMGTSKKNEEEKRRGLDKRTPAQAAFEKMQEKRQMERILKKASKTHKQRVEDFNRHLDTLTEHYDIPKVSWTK

Some of the results follow.

Compound in this assay: CC1=NC(=CC=C1)C2=C(N=C(N2)C(C)(C)C)C3=CC4=NC=CN=C4C=C3
The experiment in a line: log2 fold change, soluble protein after heating vs DMSO (PISA); higher = thermal stabilisation; K562 cells, 10 uM, 30 min; active = over 0.2 and 3.5 SD of the protein, either way, in both replicates (recomputed). An outline of the steps:
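For each measurement, 10 μM compound was applied for 30 min to K562 cells at 2×10^6 cells/mL. Aliquots were heated for 3 min across 48°C-58°C, pooled, and extracted in PBS with 0.5% NP-40 at 4°C; the supernatant after 21,000xg for 90 min was soluble protein. This was quantified by TMTpro 16plex LC-MS/MS with channel sums equalised, and thermal stability was reported relative to control samples from duplicates, on a log2 fold-change scale.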
Consider FDX1 (UniProt P10109), for which the log2 fold change is inactive: -0.014.
Take FBXL12 (UniProt Q9NXK8): the log2 fold change was inactive: -0.208.
The same measure for FKBPL (UniProt Q9UIM3): inactive: 0; for FCGR2C (UniProt P31995): inactive: 0.01.
Next, FANCB (UniProt Q8NB91): inactive: 0.015.
In the case of FIP1L1 (UniProt Q6UN15), the log2 fold change is inactive: -0.023.
The same measure for FLVCR1 (UniProt Q9Y5Y0): inactive: -0.042; for FAM49B (UniProt Q9NUQ9): inactive: 0.061.
The same measure for FAM210A (UniProt Q96ND0): inactive: -0.056.
Take FBXO30 (UniProt Q8TB52): the log2 fold change was inactive: 0.055.
The same measure for FKBP2 (UniProt P26885): inactive: 0.062.
Next, FKBP15 (UniProt Q5T1M5): inactive: -0.004; FAR1 (UniProt Q8WVX9): inactive: 0.05; FH (UniProt P07954): inactive: 0.016.
Next, FLII (UniProt Q13045): inactive: 0.009; FNBP4 isoform 2 (UniProt Q8N3X1): inactive: -0.013; FAM98B (UniProt Q52LJ0): inactive: -0.018.
For FBXL20 (UniProt Q96IG2), the log2 fold change was inactive: -0.047.
Next, FBXL18 isoform 4 (UniProt Q96ME1): inactive: 0.008.
Next, FLYWCH2 (UniProt Q96CP2): inactive: 0.01; FAM76B (UniProt Q5HYJ3): inactive: 0.023.
The same measure for FASN (UniProt P49327): inactive: 0.045; for FKBP1A (UniProt P62942): inactive: -0.022.
Take FBLL1 (UniProt A6NHQ2): the log2 fold change was inactive: -0.003.
Next, FBXO5 (UniProt Q9UKT4): inactive: -0.029; FARSB (UniProt Q9NSD9): inactive: 0; FLOT1 (UniProt O75955): inactive: -0.125.
With FCSK isoform 2 (UniProt Q8N0W3), the log2 fold change is inactive: 0.028.
The same measure for FBXO22 (UniProt Q8NEZ5): inactive: 0.02.
The same measure for FN3K (UniProt Q9H479): inactive: 0.015; for FCGR2A (UniProt P12318): inactive: 0.012; for FN3KRP (UniProt Q9HA64): inactive: -0.013.
The same measure for FAM98A (UniProt Q8NCA5): inactive: -0.047; for FKBP9 (UniProt O95302): inactive: -0.061; for FAU (UniProt P62861): inactive: -0.07.
As for FKBP5 (UniProt Q13451), the log2 fold change is inactive: 0.017.
Next, FDX2 (UniProt Q6P4F2): inactive: -0.174.
The same measure for FAM32A (UniProt Q9Y421): inactive: -0.017.
